The supplement of paper PMC10331698
± gives the standard deviation of the averaged measurements. Most values lie at the level of the controls, where differences are scatter.

Key:
Assay in all cases: level (log10 ratio to DMSO vehicle control); higher = higher biomarker level / cell amount than vehicle control
[1] = compound: CC(C)(C)C(=O)CC(=O)C(F)(F)C(F)(F)C(F)(F)F [(Heptafluorobutanoyl)pivaloylmethane]; details: 2200 nM; in DMSO
Outline: (§1)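 BioMAP Diversity Plus human primary cell co-cultures got test substances 1 h before cytokine or activator stimulation, then 24 h incubation (MyoF 48 h; BT 72 h, or 6 d for secreted IgG), one well per endpoint, final DMSO < 0.1%. Biomarkers were read by ELISA, cell amount by sulforhodamine B, and PBMC viability/proliferation by Alamar Blue. Each well was divided by the mean of 8 same-plate DMSO wells and log10 transformed. Duplicate blinded samples were averaged.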

1-(Perfluorohexyl)octane = compound: CCCCCCCCC(F)(F)C(F)(F)C(F)(F)C(F)(F)C(F)(F)C(F)(F)F [1-(Perfluorohexyl)octane]; details: in DMSO
Outline: as §1

[2] = compound: CCN(CCO)S(=O)(=O)C(F)(F)C(F)(F)C(F)(F)C(F)(F)C(F)(F)C(F)(F)C(F)(F)C(F)(F)F [N-Ethyl-N-(2-hydroxyethyl)perfluorooctanesulfonamide]; details: in DMSO
Outline: as §1

[3] = compound: CN(C(=O)C(F)(F)C(F)(F)C(F)(F)F)[Si](C)(C)C [N-Methyl-N-trimethylsilylheptafluorobutyramide]; details: 2200 nM; in DMSO
Outline: as §1

[4] = compound: Cc1ccc(S(=O)(=O)OCC(F)(F)C(F)(F)C(F)(F)C(F)(F)C(F)(F)C(F)F)cc1 [1H,1H,7H-Perfluoroheptyl 4-methylbenzenesulfonate]; details: 2200 nM; in DMSO
Outline: as §1

[5] = compound: FC(F)(F)C(F)(F)C(F)(F)C(F)(F)C(F)(F)C(F)(F)CC1CO1 [3-(Perfluorohexyl)-1,2-epoxypropane]; details: 2200 nM; in DMSO
Outline: as §1

Heptafluorobutyramide = compound: NC(=O)C(F)(F)C(F)(F)C(F)(F)F [Heptafluorobutyramide]; details: 2200 nM; in DMSO
Outline: as §1

[6] = compound: NCC(F)(F)C(F)(F)C(F)(F)C(F)(F)C(F)(F)C(F)(F)C(F)(F)F [1H,1H-Perfluorooctylamine]; details: 2200 nM; in DMSO
Outline: as §1

Octafluoroadipic acid = compound: O=C(O)C(F)(F)C(F)(F)C(F)(F)C(F)(F)C(=O)O [Octafluoroadipic acid]; details: 2200 nM; in DMSO
Outline: as §1

[7] = compound: O=C(O)C(F)(F)C(F)(F)C(F)(F)C(F)(F)C(F)(F)C(F)(F)C(F)(F)C(F)(F)C(F)(F)C(F)F [11-H-Perfluoroundecanoic acid]; details: 2200 nM; in DMSO
Outline: as §1

Perfluoroheptanoic acid = compound: O=C(O)C(F)(F)C(F)(F)C(F)(F)C(F)(F)C(F)(F)C(F)(F)F [Perfluoroheptanoic acid]; details: in DMSO
Outline: as §1

Perfluoropentanoic acid = compound: O=C(O)C(F)(F)C(F)(F)C(F)(F)C(F)(F)F [Perfluoropentanoic acid]; details: in DMSO
Outline: as §1

[8] = compound: O=C(O)C(F)(F)C(F)(F)C(F)(F)OC(F)(F)F [Perfluoro(4-methoxybutanoic) acid]; details: 2200 nM; in DMSO
Outline: as §1

[9] = compound: O=S(=O)(O)CCC(F)(F)C(F)(F)C(F)(F)C(F)(F)C(F)(F)C(F)(F)C(F)(F)C(F)(F)F [8:2 Fluorotelomer sulfonic acid]; details: in DMSO
Outline: as §1

1H,1H-Heptafluorobutanol = compound: OCC(F)(F)C(F)(F)C(F)(F)F [1H,1H-Heptafluorobutanol]; details: 2200 nM; in DMSO
Outline: as §1

[10] = compound: OCCC(F)(F)C(F)(F)C(F)(F)C(F)(F)C(F)(F)C(F)(F)F [6:2 Fluorotelomer alcohol]; details: 2200 nM; in DMSO
Outline: as §1

Row | Test System | level (log10) [1] | level (log10) (1-(Perfluorohexyl)octane; 740 nM) | level (log10) (1-(Perfluorohexyl)octane; 2200 nM) | level (log10) ([2]; 2200 nM) | level (log10) ([2]; 6700 nM) | level (log10) ([2]; 20000 nM) | level (log10) [3] | level (log10) [4] | level (log10) [5] | level (log10) (Heptafluorobutyramide) | level (log10) [6] | level (log10) (Octafluoroadipic acid) | level (log10) [7] | level (log10) (Perfluoroheptanoic acid; 2200 nM) | level (log10) (Perfluoroheptanoic acid; 6700 nM) | level (log10) (Perfluoroheptanoic acid; 20000 nM) | level (log10) (Perfluoroheptanoic acid; 60000 nM) | level (log10) (Perfluoropentanoic acid; 2200 nM) | level (log10) (Perfluoropentanoic acid; 6700 nM) | level (log10) (Perfluoropentanoic acid; 20000 nM) | level (log10) (Perfluoropentanoic acid; 60000 nM) | level (log10) [8] | level (log10) ([9]; 2200 nM) | level (log10) ([9]; 6700 nM) | level (log10) ([9]; 20000 nM) | level (log10) ([9]; 60000 nM) | level (log10) (1H,1H-Heptafluorobutanol) | level (log10) [10]
1 | KF3CT:SRB | 0.0105 ± 0.016 | 0.006 ± 0.016 | -0.0005 ± 0.023 | -0.005 ± 0.0042 | -0.015 | -0.0305 ± 0.0092 | -0.0055 ± 0.0064 | -0.003 ± 0.017 | 0.008 ± 0.02 | 0.0115 ± 0.018 | 0.0005 ± 0.0021 | 0.014 ± 0.018 | -0.003 ± 0.0014 | 0.0105 ± 0.011 | -0.0065 ± 0.005 | -0.006 ± 0.0085 | 0.007 ± 0.016 | 0.003 ± 0.018 | -0.007 ± 0.0071 | -0.004 ± 0.0014 | 0.0055 ± 0.011 | 0.0105 ± 0.019 | -0.0005 ± 0.011 | -0.008 ± 0.0014 | -0.0145 ± 0.0021 | -0.004 ± 0.0071 | 0.0075 ± 0.013 | 0.001 ± 0.014
2 | KF3CT:TIMP-2 | -0.001 ± 0.013 | 0.0195 ± 0.029 | 0.033 ± 0.057 | 0.0275 ± 0.039 | 0.0855 ± 0.037 | 0.04 ± 0.0028 | -0.008 ± 0.011 | 0.0085 ± 0.018 | -0.021 ± 0.014 | 0.013 ± 0.0057 | -0.032 ± 0.059 | 0.0155 ± 0.016 | 0.022 ± 0.035 | 0.02 ± 0.013 | 0.006 ± 0.021 | 0.0085 ± 0.025 | 0.031 ± 0.017 | -0.0015 ± 0.025 | -0.013 ± 0.037 | -0.0065 ± 0.0035 | 0.017 ± 0.045 | 0.013 ± 0.023 | 0.006 ± 0.0085 | -0.033 ± 0.0042 | 0.0075 ± 0.0064 | 0.0225 ± 0.0021 | -0.008 ± 0.0028 | -0.0035 ± 0.022
3 | KF3CT:uPA | -0.008 ± 0.027 | 0.009 ± 0.014 | 0.0175 ± 0.019 | 0.018 ± 0.0085 | 0.022 ± 0.0028 | -0.0225 ± 0.0021 | 0.002 ± 0.0071 | -0.0085 ± 0.012 | 0.011 ± 0.017 | 0.011 ± 0.0085 | -0.014 ± 0.018 | 0.0145 ± 0.025 | 0.0045 ± 0.016 | 0.0055 ± 0.0035 | 0.007 ± 0.016 | 0.0065 ± 0.0021 | 0.0075 ± 0.013 | 0.0085 ± 0.018 | 0.0015 ± 0.023 | 0 ± 0.0085 | 0.021 ± 0.0071 | 0.0145 ± 0.015 | 0.002 ± 0.011 | 0.007 ± 0.0042 | 0.006 ± 0.024 | 0.012 ± 0.016 | -0.0015 ± 0.0064 | -0.006 ± 0.0085
4 | LPS:CCL2/MCP-1 | -0.018 ± 0.041 | 0.015 ± 0.042 | 0.0135 ± 0.012 | 0.006 ± 0.0071 | -0.017 ± 0.025 | -0.0535 ± 0.012 | 0.011 ± 0.0042 | 0.0065 ± 0.049 | -0.0025 ± 0.032 | 0.026 ± 0.0042 | -0.0095 ± 0.025 | 0.0195 ± 0.066 | -0.007 ± 0.025 | 0.009 ± 0.013 | -0.0025 ± 0.021 | -0.005 ± 0.0028 | 0.032 ± 0.011 | 0.003 ± 0.037 | 0.0065 ± 0.0064 | -0.0065 ± 0.00071 | 0.0225 ± 0.039 | 0.0365 ± 0.013 | 0.018 ± 0.028 | 0.0135 ± 0.023 | 0.016 ± 0.0028 | -0.055 ± 0.045 | -0.0045 ± 0.036 | -0.003 ± 0.048
5 | LPS:CD40 | 0.024 ± 0.042 | -0.025 ± 0.027 | 0.01 ± 0.082 | 0.0575 ± 0.049 | 0.0735 ± 0.022 | 0.122 ± 0.0042 | -0.0185 ± 0.036 | 0.0075 ± 0.05 | -0.072 ± 0.096 | -0.013 | -0.035 ± 0.023 | -0.012 ± 0.085 | -0.0205 ± 0.0035 | -0.0175 ± 0.044 | -0.0135 ± 0.043 | 0.0055 ± 0.00071 | -0.0515 ± 0.079 | 0.003 ± 0.0071 | 0.0115 ± 0.011 | 0.0075 ± 0.022 | -0.0265 ± 0.013 | -0.026 ± 0.0028 | 0.0105 ± 0.011 | 0.037 ± 0.016 | -0.0195 ± 0.021 | -0.128 ± 0.024 | 0.054 ± 0.02 | -0.0275 ± 0.057
6 | LPS:CD62E/E-Selectin | 0.0195 ± 0.005 | -0.018 ± 0.073 | 0.0005 ± 0.042 | 0.019 ± 0.025 | 0.071 ± 0.02 | 0.073 ± 0.0042 | 0.0295 ± 0.028 | 0.0285 ± 0.035 | -0.0025 ± 0.029 | -0.0075 ± 0.023 | 0.0105 ± 0.05 | 0.0035 ± 0.0021 | 0.0105 ± 0.023 | 0.0105 ± 0.019 | -0.009 ± 0.0028 | 0 ± 0.017 | 0.01 | 0.0015 ± 0.011 | 0.01 ± 0.0057 | -0.004 ± 0.0071 | 0.015 ± 0.018 | -0.01 ± 0.033 | 0.0295 ± 0.06 | 0.0235 ± 0.06 | 0.033 ± 0.02 | 0.082 ± 0.025 | 0.0005 ± 0.0092 | 0.009 ± 0.037
7 | LPS:CD69 | -0.0145 ± 0.00071 | 0.011 ± 0.088 | -0.003 ± 0.042 | -0.006 ± 0.0014 | -0.134 ± 0.0028 | -0.226 ± 0.0042 | -0.008 ± 0.011 | -0.0065 ± 0.088 | -0.049 ± 0.061 | 0.022 ± 0.064 | -0.017 ± 0.057 | 0.0365 ± 0.06 | -0.007 ± 0.018 | -0.015 ± 0.017 | -0.0095 ± 0.0035 | -0.025 | -0.057 ± 0.013 | 0.0305 ± 0.03 | 0.007 ± 0.011 | -0.0305 ± 0.013 | -0.0135 ± 0.083 | 0.039 ± 0.1 | -0.0035 ± 0.037 | -0.0455 ± 0.06 | -0.035 ± 0.071 | -0.0835 ± 0.049 | -0.026 ± 0.023 | -0.007 ± 0.047
8 | LPS:CD106/VCAM-1 | -0.02 ± 0.033 | 0.005 ± 0.023 | -0.005 ± 0.028 | 0.009 ± 0.031 | -0.0195 ± 0.023 | -0.0395 ± 0.012 | -0.002 ± 0.0028 | 0.004 ± 0.0042 | -0.011 ± 0.0042 | 0.006 ± 0.0042 | -0.005 ± 0.02 | -0.0115 ± 0.049 | 0.029 ± 0.0085 | -0.002 ± 0.013 | -0.014 ± 0.021 | -0.0155 ± 0.025 | -0.013 ± 0.025 | -0.0005 ± 0.019 | 0.005 ± 0.013 | 0.004 ± 0.0057 | 0.0035 ± 0.023 | -0.0065 ± 0.026 | 0.001 ± 0.067 | -0.0135 ± 0.073 | -0.021 ± 0.065 | -0.0535 ± 0.077 | -0.02 ± 0.0042 | -0.0045 ± 0.0092
